Our source for the NP40-soluble protein abundance values is the supplement of paper PMC6411743.

The chains behind the UniProt entries cited, without tags or fusion partners. Where a name states a change or a piece, a line headed by the entry shows the natural chain unless it says otherwise.
UniProt Q96AG4: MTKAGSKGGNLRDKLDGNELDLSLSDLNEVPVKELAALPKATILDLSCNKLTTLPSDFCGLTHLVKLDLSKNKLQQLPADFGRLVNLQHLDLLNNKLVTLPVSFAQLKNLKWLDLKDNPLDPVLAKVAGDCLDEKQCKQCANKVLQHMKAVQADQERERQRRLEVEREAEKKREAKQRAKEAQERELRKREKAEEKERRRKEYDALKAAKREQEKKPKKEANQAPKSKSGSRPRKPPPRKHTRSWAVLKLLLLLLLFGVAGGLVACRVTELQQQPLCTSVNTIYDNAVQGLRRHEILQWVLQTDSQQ
UniProt Q8WU90: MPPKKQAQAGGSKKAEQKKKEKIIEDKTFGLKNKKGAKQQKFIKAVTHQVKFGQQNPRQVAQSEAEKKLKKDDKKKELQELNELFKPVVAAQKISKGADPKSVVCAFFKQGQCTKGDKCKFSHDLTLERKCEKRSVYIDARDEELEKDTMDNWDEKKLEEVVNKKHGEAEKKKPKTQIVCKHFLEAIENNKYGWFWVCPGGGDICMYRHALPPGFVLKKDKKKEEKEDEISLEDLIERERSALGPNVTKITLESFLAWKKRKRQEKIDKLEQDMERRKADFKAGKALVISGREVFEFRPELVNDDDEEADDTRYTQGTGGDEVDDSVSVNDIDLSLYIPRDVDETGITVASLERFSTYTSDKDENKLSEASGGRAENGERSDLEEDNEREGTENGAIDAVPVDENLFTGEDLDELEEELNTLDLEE
UniProt Q8TBE9: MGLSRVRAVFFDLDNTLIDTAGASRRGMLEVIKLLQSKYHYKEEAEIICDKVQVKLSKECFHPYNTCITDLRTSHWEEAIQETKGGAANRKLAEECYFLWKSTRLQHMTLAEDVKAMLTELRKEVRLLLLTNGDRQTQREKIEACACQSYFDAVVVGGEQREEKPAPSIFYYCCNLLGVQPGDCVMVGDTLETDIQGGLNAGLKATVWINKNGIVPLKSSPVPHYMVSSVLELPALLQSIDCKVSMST
UniProt Q8TBF4: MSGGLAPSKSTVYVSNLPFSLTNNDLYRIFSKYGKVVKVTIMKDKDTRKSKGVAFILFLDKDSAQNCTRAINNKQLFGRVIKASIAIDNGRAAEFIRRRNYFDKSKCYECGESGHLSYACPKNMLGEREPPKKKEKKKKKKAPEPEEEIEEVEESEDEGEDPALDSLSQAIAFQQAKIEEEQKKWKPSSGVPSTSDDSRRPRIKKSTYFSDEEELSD
UniProt Q969Q5: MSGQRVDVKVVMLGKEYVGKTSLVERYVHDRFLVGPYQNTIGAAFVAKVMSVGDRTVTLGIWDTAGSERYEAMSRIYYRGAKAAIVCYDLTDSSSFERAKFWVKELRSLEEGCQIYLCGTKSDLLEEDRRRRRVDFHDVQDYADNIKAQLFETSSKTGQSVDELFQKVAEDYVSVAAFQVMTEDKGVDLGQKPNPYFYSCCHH
UniProt Q92995: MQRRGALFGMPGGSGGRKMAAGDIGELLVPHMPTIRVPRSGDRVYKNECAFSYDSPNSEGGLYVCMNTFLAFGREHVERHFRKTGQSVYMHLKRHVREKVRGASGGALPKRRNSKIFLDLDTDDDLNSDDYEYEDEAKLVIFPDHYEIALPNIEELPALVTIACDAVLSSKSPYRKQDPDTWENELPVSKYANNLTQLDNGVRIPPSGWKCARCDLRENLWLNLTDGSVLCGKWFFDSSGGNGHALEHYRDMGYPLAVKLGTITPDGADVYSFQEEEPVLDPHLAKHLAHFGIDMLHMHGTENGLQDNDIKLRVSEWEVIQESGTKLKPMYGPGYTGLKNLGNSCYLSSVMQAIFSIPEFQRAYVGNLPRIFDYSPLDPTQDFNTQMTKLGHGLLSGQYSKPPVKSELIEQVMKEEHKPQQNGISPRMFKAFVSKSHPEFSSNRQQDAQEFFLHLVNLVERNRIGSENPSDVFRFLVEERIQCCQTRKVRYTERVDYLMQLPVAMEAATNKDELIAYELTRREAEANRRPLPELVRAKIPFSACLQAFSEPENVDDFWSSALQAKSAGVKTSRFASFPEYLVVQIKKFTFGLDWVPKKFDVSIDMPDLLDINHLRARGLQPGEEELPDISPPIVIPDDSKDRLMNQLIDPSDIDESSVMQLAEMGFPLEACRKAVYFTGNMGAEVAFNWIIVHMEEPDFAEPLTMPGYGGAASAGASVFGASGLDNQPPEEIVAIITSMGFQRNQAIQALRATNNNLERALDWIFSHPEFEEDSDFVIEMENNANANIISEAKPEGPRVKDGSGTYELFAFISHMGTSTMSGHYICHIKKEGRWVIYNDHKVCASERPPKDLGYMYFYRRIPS
UniProt Q8TC12: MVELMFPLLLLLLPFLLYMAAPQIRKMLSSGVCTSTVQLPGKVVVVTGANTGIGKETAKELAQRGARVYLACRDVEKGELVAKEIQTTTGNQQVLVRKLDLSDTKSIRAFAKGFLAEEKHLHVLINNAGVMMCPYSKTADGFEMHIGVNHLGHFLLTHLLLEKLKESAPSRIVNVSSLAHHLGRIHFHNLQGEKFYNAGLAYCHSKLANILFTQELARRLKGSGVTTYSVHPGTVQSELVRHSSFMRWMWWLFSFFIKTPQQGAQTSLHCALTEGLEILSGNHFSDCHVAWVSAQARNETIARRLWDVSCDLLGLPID
UniProt Q93008, whole entry: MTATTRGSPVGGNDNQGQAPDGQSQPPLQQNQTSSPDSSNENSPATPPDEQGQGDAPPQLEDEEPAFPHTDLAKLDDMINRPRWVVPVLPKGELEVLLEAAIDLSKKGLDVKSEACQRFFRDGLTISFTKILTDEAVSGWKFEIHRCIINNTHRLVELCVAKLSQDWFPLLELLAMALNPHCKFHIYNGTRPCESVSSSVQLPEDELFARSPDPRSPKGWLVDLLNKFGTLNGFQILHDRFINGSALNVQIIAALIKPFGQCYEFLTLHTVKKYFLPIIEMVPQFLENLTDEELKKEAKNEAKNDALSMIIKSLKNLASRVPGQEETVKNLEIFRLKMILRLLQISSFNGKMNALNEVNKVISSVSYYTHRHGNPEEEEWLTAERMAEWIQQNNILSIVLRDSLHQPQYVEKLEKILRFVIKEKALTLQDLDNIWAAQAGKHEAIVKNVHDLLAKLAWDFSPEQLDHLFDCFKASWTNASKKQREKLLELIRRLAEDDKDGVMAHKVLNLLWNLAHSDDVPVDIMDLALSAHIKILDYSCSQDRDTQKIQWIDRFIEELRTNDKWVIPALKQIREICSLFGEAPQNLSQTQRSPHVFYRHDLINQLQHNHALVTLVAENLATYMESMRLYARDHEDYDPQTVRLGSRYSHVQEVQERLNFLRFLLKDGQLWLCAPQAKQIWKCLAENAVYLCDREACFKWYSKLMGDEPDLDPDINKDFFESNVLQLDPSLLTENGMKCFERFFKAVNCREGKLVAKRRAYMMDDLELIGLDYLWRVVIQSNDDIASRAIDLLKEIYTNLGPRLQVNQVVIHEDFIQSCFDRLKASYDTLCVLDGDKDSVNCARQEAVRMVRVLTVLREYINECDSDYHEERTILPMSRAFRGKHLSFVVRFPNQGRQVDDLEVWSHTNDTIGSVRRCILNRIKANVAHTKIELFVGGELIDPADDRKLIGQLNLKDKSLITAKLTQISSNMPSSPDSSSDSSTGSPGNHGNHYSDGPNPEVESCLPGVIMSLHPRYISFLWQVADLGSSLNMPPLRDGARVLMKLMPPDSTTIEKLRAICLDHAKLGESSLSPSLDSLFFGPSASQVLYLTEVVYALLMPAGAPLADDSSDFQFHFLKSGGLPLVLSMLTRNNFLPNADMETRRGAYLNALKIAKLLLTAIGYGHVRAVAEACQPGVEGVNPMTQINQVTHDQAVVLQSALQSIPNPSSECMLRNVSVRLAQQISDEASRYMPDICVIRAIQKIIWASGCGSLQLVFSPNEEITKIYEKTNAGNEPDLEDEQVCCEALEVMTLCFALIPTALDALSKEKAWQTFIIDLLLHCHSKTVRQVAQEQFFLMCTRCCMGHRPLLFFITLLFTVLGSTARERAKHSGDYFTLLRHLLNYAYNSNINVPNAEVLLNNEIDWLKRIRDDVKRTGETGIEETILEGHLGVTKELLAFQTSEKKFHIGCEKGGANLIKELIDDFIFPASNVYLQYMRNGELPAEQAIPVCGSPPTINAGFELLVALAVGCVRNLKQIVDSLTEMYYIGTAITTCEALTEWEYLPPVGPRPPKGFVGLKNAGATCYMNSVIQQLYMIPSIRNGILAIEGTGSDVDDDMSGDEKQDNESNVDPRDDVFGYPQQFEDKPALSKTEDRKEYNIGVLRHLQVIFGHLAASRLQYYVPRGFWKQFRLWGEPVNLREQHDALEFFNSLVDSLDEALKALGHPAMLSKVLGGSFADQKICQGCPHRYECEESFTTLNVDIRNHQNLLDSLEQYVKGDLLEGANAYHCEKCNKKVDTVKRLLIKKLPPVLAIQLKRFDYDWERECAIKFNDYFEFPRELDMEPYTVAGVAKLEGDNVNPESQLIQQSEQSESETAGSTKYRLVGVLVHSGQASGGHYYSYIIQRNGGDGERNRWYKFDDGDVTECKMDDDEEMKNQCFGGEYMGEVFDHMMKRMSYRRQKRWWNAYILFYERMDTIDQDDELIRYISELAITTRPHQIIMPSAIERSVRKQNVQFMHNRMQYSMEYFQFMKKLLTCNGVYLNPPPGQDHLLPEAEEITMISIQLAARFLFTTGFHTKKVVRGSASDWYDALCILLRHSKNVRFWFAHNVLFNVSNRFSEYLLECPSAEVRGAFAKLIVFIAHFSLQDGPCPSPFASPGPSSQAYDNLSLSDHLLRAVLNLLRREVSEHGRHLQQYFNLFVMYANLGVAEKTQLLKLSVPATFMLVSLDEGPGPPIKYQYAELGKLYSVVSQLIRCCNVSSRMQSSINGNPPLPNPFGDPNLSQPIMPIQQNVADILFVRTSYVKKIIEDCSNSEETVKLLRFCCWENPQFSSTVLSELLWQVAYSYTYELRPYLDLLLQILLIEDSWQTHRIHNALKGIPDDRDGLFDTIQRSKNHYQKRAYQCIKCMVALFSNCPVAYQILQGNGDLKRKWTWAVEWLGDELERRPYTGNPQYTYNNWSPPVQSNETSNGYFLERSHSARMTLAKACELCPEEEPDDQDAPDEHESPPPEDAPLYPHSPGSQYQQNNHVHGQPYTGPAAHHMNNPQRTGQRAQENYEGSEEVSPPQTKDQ
UniProt Q8WVM0: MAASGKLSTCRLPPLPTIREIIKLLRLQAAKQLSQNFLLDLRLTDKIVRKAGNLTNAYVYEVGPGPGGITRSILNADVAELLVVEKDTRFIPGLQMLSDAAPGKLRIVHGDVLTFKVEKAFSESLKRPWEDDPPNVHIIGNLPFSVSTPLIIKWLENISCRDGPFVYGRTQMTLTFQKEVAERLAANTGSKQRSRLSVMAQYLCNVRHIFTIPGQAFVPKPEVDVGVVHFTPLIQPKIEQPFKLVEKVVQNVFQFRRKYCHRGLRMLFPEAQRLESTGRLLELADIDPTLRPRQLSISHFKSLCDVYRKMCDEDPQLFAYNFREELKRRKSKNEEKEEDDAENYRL
UniProt Q8TCZ2: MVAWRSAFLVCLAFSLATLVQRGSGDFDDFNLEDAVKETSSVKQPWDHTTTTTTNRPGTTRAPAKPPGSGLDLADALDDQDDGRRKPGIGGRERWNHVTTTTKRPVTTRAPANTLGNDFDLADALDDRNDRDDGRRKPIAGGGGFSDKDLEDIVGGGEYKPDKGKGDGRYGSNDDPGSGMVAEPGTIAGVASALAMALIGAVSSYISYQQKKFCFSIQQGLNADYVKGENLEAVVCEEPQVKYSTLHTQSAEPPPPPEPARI
UniProt Q96A49: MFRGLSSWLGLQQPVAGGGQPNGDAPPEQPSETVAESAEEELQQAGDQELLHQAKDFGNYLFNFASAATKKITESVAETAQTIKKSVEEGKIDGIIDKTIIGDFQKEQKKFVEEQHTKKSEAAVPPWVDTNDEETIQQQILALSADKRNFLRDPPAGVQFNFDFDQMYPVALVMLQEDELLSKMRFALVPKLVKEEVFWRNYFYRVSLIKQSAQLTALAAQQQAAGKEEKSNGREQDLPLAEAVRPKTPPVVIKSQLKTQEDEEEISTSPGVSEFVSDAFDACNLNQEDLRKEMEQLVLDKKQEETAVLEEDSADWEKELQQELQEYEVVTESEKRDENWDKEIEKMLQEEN
UniProt Q92769, whole entry: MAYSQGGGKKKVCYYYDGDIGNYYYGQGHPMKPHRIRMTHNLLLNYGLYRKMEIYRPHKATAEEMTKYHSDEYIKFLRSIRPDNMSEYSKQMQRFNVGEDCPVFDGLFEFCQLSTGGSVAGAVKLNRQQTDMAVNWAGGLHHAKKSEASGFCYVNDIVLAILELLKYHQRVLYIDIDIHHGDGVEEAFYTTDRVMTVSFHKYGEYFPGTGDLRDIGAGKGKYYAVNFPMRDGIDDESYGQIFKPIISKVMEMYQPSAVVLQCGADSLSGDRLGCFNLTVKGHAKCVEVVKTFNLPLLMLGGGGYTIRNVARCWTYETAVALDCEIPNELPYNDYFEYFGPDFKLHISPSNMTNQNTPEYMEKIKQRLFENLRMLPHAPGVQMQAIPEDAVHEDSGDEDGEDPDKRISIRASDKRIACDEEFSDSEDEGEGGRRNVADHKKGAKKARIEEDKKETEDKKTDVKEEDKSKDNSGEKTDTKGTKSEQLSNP

± gives the standard deviation of the averaged measurements. Only a part is listed here, and it is no random draw.

Compound in this assay: Nc1ncnc2c1ncn2[C@@H]1O[C@H](COP(=O)(O)OP(=O)(O)OP(=O)(O)O)[C@@H](O)[C@H]1O [adenosine triphosphate]
In words: NP40-soluble protein abundance relative to vehicle (solubility fold change) (ratio); higher = more soluble protein in presence of ATP. The gist of the method:
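Jurkat crude lysate prepared with a Dounce homogeniser was treated at eight concentrations spanning 0.1 to 10 mM, 10 min at room temperature then 3 min at 37 °C. Solubilisation with 0.8% NP40 and benzonase and ultracentrifugation preceded TMT labelling of the supernatant for LC-MS/MS. Fold change against the detergent-processed vehicle was determined per replicate from vsn-normalised intensities, across three independent experiments.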

Consider LRRC59 (UniProt Q96AG4), for which the NP40-soluble protein abundance is, setting by setting: (concentration: 1mM) 0.848 ± 0.19; (concentration: 2mM) 0.925 ± 0.029; (concentration: 4mM) 0.955 ± 0.023; (concentration: 6mM) 0.995 ± 0.065; (concentration: 8mM) 0.988 ± 0.046; (concentration: 10mM) 0.924 ± 0.13.

Turning to ZC3H15 (UniProt Q8WU90), the NP40-soluble protein abundance is, setting by setting: (concentration: 1mM) 0.965 ± 0.036; (concentration: 2mM) 0.962 ± 0.013; (concentration: 4mM) 0.955 ± 0.017; (concentration: 6mM) 0.996 ± 0.013; (concentration: 8mM) 0.959 ± 0.026; (concentration: 10mM) 0.969 ± 0.033.

Take NANP (UniProt Q8TBE9): the NP40-soluble protein abundance is, setting by setting: (concentration: 1mM) 1.04 ± 0.036; (concentration: 2mM) 1.07 ± 0.033; (concentration: 4mM) 1.03 ± 0.012; (concentration: 6mM) 0.987 ± 0.042; (concentration: 8mM) 1 ± 0.032; (concentration: 10mM) 0.985 ± 0.034.

Take ZCRB1 (UniProt Q8TBF4): the NP40-soluble protein abundance came to 1.02 ± 0.11 (concentration: 1mM); 0.989 ± 0.059 (concentration: 2mM); 1 ± 0.052 (concentration: 4mM); 1.02 ± 0.024 (concentration: 6mM); 1 ± 0.12 (concentration: 8mM); 0.967 ± 0.086 (concentration: 10mM).

RAB24 (UniProt Q969Q5): the NP40-soluble protein abundance is, setting by setting: (concentration: 1mM) 1.03 ± 0.051; (concentration: 2mM) 1.02 ± 0.063; (concentration: 4mM) 1 ± 0.055; (concentration: 6mM) 1.02 ± 0.11; (concentration: 8mM) 1.01 ± 0.041; (concentration: 10mM) 0.994 ± 0.056.

Turning to HSD17B8 (UniProt Q92506), the NP40-soluble protein abundance is, setting by setting: (concentration: 1mM) 0.949 ± 0.033; (concentration: 2mM) 0.961 ± 0.025; (concentration: 4mM) 0.911 ± 0.063; (concentration: 6mM) 0.985 ± 0.073; (concentration: 8mM) 0.94 ± 0.051; (concentration: 10mM) 0.931 ± 0.017.

As to USP13 (UniProt Q92995), the NP40-soluble protein abundance (concentration: 1mM) amounted to 0.987 ± 0.071; the NP40-soluble protein abundance (concentration: 2mM) turned out to be 0.979 ± 0.039; the NP40-soluble protein abundance (concentration: 4mM) is 0.961 ± 0.047; the NP40-soluble protein abundance (concentration: 6mM) came to 0.949 ± 0.064; the NP40-soluble protein abundance (concentration: 8mM) turned out to be 0.976 ± 0.049; the NP40-soluble protein abundance (concentration: 10mM) came out at 0.97 ± 0.025.

On to CHAC2 (UniProt Q8WUX2), for which the NP40-soluble protein abundance is, setting by setting: (concentration: 1mM) 0.994 ± 0.12; (concentration: 2mM) 1.03 ± 0.032; (concentration: 4mM) 1.06 ± 0.035; (concentration: 6mM) 0.954 ± 0.079; (concentration: 8mM) 0.997 ± 0.034; (concentration: 10mM) 0.975 ± 0.059.

For the target UniProt Q8TCF1 and related entries, the NP40-soluble protein abundance stood at 0.939 ± 0.072 (concentration: 1mM); 0.959 ± 0.057 (concentration: 2mM); 0.943 ± 0.041 (concentration: 4mM); 0.96 ± 0.016 (concentration: 6mM); 0.893 ± 0.048 (concentration: 8mM); 0.907 ± 0.06 (concentration: 10mM).

On to RDH11 (UniProt Q8TC12), for which the NP40-soluble protein abundance (concentration: 1mM) turned out to be 0.959 ± 0.11; the NP40-soluble protein abundance (concentration: 2mM) is 0.938 ± 0.072; the NP40-soluble protein abundance (concentration: 4mM) was 0.925 ± 0.026; the NP40-soluble protein abundance (concentration: 6mM) was 0.884 ± 0.11; the NP40-soluble protein abundance (concentration: 8mM) amounted to 0.946 ± 0.031; the NP40-soluble protein abundance (concentration: 10mM) was 0.972 ± 0.035.

Regarding UniProt Q93008 and related entries, the NP40-soluble protein abundance by setting is: (concentration: 1mM) 1.03 ± 0.061; (concentration: 2mM) 1.01 ± 0.041; (concentration: 4mM) 1.02 ± 0.021; (concentration: 6mM) 0.929 ± 0.067; (concentration: 8mM) 1.05 ± 0.023; (concentration: 10mM) 1.02 ± 0.033.

As for UniProt Q8TF46 and related entries, the NP40-soluble protein abundance is, setting by setting: (concentration: 1mM) 1 ± 0.032; (concentration: 2mM) 0.982 ± 0.057; (concentration: 4mM) 1 ± 0.072; (concentration: 6mM) 0.973 ± 0.06; (concentration: 8mM) 0.957 ± 0.054; (concentration: 10mM) 0.967 ± 0.081.

Consider TFB1M (UniProt Q8WVM0), for which the NP40-soluble protein abundance runs as follows: (concentration: 1mM) 1.04 ± 0.13; (concentration: 2mM) 1.06 ± 0.083; (concentration: 4mM) 1.09 ± 0.031; (concentration: 6mM) 1.11 ± 0.074; (concentration: 8mM) 1.19 ± 0.051; (concentration: 10mM) 1.28 ± 0.045.

For UniProt Q8TCZ2 and related entries, the NP40-soluble protein abundance is, setting by setting: (concentration: 1mM) 0.82 ± 0.044; (concentration: 2mM) 0.856 ± 0.029; (concentration: 4mM) 0.833 ± 0.049; (concentration: 6mM) 0.835 ± 0.03; (concentration: 8mM) 0.886 ± 0.059; (concentration: 10mM) 0.816 ± 0.063.

In the case of DTX3L (UniProt Q8TDB6), the NP40-soluble protein abundance turned out to be 1.07 ± 0.037 (concentration: 1mM); 1.09 ± 0.015 (concentration: 2mM); 1.113 ± 0.011 (concentration: 4mM); 1.13 ± 0.049 (concentration: 6mM); 1.14 ± 0.02 (concentration: 8mM); 1.16 ± 0.051 (concentration: 10mM).

With SYAP1 (UniProt Q96A49), the NP40-soluble protein abundance is 0.961 ± 0.056 (concentration: 1mM); 0.944 ± 0.048 (concentration: 2mM); 0.925 ± 0.044 (concentration: 4mM); 0.957 ± 0.037 (concentration: 6mM); 0.912 ± 0.015 (concentration: 8mM); 0.903 ± 0.045 (concentration: 10mM).

With HDAC2 (UniProt Q92769), the NP40-soluble protein abundance is, setting by setting: (concentration: 1mM) 1.03 ± 0.014; (concentration: 2mM) 1.01 ± 0.026; (concentration: 4mM) 0.984 ± 0.014; (concentration: 6mM) 0.985 ± 0.082; (concentration: 8mM) 1.04 ± 0.056; (concentration: 10mM) 1.04 ± 0.072.
